Some of the results follow. Single values of this set are uncertain.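 Tm was set to 64 °C where no melting was found, and many curves are irregular.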
Compound: CCc1cnccc1C(=O)Nc1cc2c(cc1F)NC(=O)CC2
Assay: melting temperature shift (DMSO Tm minus MBE1-treated Tm) in cellular thermal proteome profiling; higher = less thermal stabilization by MBE1 (negative = stabilized by MBE1)
Conditions: A375

Chains of the proteins cited; added tags and fusions are not shown. Lines headed by an entry give the natural chain unless they say otherwise; changes in a name come on top.
UniProt Q9NX63: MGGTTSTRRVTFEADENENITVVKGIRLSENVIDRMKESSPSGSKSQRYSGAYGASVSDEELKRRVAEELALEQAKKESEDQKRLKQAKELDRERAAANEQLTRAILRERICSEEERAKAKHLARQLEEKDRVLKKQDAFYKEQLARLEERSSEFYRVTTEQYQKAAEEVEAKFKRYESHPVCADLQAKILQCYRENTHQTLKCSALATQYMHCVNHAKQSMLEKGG
UniProt Q9NXC5: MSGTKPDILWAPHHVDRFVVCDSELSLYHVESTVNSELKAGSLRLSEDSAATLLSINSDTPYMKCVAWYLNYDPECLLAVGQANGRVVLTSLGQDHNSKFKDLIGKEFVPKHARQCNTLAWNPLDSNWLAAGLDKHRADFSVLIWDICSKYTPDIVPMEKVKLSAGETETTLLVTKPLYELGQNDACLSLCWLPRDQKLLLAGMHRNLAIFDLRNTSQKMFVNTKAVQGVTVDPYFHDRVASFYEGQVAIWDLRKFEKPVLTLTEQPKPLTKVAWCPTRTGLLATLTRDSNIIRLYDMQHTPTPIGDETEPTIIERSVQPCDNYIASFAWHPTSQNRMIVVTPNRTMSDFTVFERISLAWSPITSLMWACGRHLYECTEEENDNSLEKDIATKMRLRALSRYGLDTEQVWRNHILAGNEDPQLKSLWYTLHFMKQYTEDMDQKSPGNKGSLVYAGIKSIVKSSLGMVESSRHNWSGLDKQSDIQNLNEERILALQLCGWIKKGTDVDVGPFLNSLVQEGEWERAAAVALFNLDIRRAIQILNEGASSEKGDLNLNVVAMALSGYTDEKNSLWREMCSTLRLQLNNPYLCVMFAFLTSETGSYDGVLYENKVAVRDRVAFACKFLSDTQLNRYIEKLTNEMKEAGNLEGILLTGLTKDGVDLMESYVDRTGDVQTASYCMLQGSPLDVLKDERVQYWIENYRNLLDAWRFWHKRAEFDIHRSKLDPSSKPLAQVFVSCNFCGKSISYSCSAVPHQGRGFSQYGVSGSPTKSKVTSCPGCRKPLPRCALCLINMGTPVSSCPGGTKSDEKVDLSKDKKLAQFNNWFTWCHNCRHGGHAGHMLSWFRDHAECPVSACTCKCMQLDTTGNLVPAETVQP
UniProt Q9NXE8: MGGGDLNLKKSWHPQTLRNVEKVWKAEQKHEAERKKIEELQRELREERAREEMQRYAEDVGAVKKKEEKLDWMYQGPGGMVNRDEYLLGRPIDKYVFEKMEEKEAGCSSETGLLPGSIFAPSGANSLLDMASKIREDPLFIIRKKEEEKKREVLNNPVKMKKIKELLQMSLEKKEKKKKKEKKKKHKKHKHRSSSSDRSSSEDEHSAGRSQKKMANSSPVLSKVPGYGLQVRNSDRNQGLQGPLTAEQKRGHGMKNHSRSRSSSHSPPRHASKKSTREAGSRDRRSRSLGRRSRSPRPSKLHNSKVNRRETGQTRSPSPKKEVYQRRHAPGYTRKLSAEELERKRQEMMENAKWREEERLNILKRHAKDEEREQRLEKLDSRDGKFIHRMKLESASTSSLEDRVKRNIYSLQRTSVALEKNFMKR
UniProt Q9UBS4: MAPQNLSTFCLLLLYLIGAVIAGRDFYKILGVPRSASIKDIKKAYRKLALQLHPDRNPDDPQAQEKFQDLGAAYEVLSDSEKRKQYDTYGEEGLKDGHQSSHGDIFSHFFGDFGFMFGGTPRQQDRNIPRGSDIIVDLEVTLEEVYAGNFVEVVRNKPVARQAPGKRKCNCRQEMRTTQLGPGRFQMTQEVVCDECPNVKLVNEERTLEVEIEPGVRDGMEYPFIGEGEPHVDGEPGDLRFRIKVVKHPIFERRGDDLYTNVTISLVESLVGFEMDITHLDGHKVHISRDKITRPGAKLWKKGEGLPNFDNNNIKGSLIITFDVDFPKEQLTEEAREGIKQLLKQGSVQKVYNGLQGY
UniProt Q9P2J5: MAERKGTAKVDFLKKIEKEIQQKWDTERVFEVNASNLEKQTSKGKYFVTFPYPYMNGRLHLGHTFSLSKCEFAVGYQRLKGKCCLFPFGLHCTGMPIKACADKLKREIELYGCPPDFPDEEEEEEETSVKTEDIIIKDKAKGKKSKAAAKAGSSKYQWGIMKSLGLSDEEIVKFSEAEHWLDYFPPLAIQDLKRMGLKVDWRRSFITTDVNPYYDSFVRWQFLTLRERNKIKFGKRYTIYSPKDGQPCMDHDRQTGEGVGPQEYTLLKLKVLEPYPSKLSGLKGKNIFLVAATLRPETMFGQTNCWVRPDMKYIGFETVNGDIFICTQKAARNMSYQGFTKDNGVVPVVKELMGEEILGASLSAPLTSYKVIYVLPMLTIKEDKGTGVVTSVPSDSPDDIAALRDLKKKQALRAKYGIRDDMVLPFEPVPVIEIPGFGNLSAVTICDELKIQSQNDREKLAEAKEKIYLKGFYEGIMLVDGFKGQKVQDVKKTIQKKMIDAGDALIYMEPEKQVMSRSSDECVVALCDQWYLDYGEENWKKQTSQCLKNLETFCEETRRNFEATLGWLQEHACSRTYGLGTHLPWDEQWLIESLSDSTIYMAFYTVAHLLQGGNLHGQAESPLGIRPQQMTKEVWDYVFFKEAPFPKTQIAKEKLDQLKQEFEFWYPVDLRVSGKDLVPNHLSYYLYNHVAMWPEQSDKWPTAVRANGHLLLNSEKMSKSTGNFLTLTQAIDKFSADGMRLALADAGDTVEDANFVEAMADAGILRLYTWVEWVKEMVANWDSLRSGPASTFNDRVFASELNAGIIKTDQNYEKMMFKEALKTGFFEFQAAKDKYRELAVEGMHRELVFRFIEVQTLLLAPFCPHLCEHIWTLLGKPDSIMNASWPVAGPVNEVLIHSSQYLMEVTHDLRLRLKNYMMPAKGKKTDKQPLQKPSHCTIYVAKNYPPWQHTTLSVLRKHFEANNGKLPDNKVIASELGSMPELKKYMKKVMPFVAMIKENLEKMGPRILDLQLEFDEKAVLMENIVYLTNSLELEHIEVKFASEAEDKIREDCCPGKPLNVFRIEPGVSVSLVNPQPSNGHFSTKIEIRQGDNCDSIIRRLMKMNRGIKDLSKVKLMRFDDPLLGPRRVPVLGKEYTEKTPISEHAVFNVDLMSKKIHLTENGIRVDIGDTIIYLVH
UniProt Q9NYV4, whole entry, looked up: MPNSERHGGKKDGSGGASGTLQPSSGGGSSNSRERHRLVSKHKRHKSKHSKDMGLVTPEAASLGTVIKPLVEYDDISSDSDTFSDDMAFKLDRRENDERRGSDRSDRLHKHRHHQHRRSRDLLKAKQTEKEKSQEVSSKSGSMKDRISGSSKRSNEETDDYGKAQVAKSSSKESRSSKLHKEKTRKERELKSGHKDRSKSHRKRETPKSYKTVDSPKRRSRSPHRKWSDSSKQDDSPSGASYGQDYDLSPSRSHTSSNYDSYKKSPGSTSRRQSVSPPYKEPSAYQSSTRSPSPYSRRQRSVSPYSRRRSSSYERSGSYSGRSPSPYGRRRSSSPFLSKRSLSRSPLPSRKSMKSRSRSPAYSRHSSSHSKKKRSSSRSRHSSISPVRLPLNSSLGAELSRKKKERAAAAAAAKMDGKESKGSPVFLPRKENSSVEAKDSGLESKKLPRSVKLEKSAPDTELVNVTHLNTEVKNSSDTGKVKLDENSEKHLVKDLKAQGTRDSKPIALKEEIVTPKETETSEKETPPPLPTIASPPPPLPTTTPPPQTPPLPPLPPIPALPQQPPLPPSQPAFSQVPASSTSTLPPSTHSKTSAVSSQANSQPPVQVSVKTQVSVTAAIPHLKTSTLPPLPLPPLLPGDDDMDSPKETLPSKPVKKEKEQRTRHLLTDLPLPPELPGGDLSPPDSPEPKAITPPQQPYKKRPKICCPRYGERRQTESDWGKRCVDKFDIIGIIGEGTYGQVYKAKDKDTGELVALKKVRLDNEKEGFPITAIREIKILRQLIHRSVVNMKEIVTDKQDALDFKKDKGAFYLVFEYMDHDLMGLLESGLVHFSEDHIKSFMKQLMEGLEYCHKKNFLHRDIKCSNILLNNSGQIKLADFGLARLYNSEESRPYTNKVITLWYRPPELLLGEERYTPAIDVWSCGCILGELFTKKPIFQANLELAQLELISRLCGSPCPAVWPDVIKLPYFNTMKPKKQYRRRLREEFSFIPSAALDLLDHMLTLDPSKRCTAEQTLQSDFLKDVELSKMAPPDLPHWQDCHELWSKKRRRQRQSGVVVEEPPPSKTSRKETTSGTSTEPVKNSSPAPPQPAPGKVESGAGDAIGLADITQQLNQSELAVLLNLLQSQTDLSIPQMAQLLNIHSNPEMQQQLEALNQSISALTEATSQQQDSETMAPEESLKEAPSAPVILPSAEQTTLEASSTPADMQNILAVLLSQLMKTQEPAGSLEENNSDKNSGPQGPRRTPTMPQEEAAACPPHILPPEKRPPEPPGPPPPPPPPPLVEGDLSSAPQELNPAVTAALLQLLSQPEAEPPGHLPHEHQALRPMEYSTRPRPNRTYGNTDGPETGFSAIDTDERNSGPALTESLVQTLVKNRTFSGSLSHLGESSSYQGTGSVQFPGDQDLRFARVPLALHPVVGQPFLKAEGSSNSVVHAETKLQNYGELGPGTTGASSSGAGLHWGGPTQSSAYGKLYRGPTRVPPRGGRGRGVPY
UniProt Q9P2B4: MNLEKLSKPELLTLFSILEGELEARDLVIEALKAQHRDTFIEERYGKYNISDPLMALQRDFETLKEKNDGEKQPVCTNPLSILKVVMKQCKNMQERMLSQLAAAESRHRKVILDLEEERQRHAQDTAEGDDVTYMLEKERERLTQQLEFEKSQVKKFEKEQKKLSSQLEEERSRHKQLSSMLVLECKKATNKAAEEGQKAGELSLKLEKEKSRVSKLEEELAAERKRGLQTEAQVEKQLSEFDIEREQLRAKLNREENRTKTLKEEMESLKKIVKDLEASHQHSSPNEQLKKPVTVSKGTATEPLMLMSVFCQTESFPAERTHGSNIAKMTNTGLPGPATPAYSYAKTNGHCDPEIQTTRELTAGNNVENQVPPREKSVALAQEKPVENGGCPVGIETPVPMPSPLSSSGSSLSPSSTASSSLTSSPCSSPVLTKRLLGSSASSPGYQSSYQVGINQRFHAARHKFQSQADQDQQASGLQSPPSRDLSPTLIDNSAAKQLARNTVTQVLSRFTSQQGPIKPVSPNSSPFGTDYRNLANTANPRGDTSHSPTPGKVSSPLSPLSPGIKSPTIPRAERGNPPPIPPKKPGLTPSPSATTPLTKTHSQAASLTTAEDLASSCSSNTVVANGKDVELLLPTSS
UniProt Q9P2X0: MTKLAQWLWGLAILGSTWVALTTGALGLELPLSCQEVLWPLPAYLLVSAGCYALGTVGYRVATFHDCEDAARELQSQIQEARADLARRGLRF
UniProt Q9NX18: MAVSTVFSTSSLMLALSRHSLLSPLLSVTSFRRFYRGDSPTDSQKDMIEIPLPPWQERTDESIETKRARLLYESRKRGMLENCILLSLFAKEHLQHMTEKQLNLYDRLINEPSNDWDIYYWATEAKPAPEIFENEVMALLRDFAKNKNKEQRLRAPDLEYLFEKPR
UniProt Q9UDW1: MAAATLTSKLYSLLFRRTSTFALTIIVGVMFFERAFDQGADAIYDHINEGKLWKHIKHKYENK
UniProt Q9UBF2: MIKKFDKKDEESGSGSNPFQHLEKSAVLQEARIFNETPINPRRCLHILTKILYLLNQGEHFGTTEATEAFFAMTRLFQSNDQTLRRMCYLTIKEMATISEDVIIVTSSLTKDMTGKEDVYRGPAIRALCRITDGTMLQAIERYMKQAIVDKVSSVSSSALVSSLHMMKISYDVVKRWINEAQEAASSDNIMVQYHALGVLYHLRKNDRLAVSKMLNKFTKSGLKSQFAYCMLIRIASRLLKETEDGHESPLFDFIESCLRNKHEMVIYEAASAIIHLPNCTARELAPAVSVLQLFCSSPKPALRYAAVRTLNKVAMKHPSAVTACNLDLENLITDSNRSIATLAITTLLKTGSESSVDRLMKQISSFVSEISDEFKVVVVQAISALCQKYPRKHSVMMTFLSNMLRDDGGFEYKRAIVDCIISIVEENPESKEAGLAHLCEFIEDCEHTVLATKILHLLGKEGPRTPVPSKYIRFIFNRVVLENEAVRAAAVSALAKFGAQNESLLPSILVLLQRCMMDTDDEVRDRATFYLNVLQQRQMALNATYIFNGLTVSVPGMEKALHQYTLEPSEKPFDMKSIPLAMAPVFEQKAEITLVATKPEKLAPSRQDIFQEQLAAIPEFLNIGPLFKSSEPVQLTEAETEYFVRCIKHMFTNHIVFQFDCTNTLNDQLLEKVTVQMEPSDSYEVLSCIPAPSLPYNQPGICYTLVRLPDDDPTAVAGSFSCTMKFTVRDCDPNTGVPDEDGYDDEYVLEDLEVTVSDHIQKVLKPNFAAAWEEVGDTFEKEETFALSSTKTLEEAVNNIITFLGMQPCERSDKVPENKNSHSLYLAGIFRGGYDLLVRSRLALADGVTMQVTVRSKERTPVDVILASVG
UniProt Q9NW61: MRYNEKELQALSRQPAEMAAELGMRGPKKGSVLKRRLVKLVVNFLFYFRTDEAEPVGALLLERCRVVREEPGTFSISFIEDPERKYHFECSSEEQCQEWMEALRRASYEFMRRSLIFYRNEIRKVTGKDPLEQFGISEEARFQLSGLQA

| Target | melting temperature shift (MBE1 concentration: 100 nM) [°C] | melting temperature shift (MBE1 concentration: 1 uM) [°C] |
| --- | --- | --- |
| CHCHD3 (UniProt Q9NX63) | -1.07 | 0.116 |
| LYAR (UniProt Q9NX58) | -0.892 | 0.557 |
| RAI14 (UniProt Q9P0K7) | -0.654 | -0.343 |
| UniProt Q9NYJ1 | 0 | 0 |
| RCC2 (UniProt Q9P258) | -0.448 | 0.348 |
| UniProt Q9P0N9 | -0.387 | -0.326 |
| SIPA1L2 (UniProt Q9P2F8) | -1.69 | -1.6 |
| MIOS (UniProt Q9NXC5) | -0.859 | 0.22 |
| NXF1 (UniProt Q9UBU9) | -0.243 | -0.128 |
| THYN1 (UniProt Q9P016) | 0.0183 | 0.641 |
| VTI1B (UniProt Q9UEU0) | -3.41 | -3.5 |
| UniProt Q9NXE8 | -2.67 | -0.496 |
| ACTR10 (UniProt Q9NZ32) | -1.55 | -1.26 |
| UniProt Q9P0J0 | -0.171 | -0.294 |
| DNAJB11 (UniProt Q9UBS4) | -1.88 | -0.409 |
| UniProt Q9NZI7 | -0.973 | -0.589 |
| MARCH5 (UniProt Q9NX47) | 0.374 | -0.653 |
| MRPL15 (UniProt Q9P015) | 1.2 | 0.788 |
| RIC8B (UniProt Q9NVN3) | 0.63 | 0.0794 |
| DIP2B (UniProt Q9P265) | -0.349 | -0.409 |
| UniProt Q9NZN3 | 0.311 | 0.153 |
| KLHL11 (UniProt Q9NVR0) | -0.299 | 0.812 |
| MRPL16 (UniProt Q9NX20) | 0.568 | 0.415 |
| COPS7A (UniProt Q9UBW8) | -0.49 | -0.51 |

Fetched one by one from the entries so far:

| Target | melting temperature shift (MBE1 concentration: 100 nM) [°C] | melting temperature shift (MBE1 concentration: 1 uM) [°C] |
| --- | --- | --- |
| RIC8B (UniProt Q9NVN3) | 0.63 | 0.0794 |
| UniProt Q9P0J0 | -0.171 | -0.294 |
| MARCH5 (UniProt Q9NX47) | 0.374 | -0.653 |
| RCC2 (UniProt Q9P258) | -0.448 | 0.348 |

Additional entries.

| Target | melting temperature shift (MBE1 concentration: 100 nM) [°C] | melting temperature shift (MBE1 concentration: 1 uM) [°C] |
| --- | --- | --- |
| ITSN2 (UniProt Q9NZM3) | -0.855 | -0.832 |
| EXD2 (UniProt Q9NVH0) | -0.183 | -0.468 |
| UniProt Q9P0T4 | -1.11 | 1.12 |
| UGGT1 (UniProt Q9NYU2) | -0.926 | 0.0671 |
| ASB6 (UniProt Q9NWX5) | 0.394 | -0.14 |
| UniProt Q9NZC7 | -0.849 | 0.235 |
| SH3BP4 (UniProt Q9P0V3) | -6.43 | -4.17 |
| LARS (UniProt Q9P2J5) | -0.706 | -0.409 |
| TENM3 (UniProt Q9P273) | -2.23 | -0.25 |
| UniProt Q9P2J3 | 0.358 | 0.0333 |
| EXTL2 (UniProt Q9UBQ6) | -0.52 | -2.48 |
| SEL1L (UniProt Q9UBV2) | -1.54 | 0.161 |
| POLR3E (UniProt Q9NVU0) | -1.02 | -0.976 |
| UniProt Q9NYV4 | -0.161 | 1.01 |
| ADPRHL2 (UniProt Q9NX46) | -0.537 | 0.396 |
| UniProt Q9NZR1 | -0.0977 | 0.0366 |
| FTSJ1 (UniProt Q9UET6) | -1.07 | 0.702 |
| LRWD1 (UniProt Q9UFC0) | -0.365 | -0.487 |
| UniProt Q9P2J9 | 0.767 | 1.08 |
| UniProt Q9NX31 | 0.849 | -0.275 |
| ZNF629 (UniProt Q9UEG4) | -4.55 | -5.72 |
| DDX18 (UniProt Q9NVP1) | 0.989 | 0.171 |
| CFAP97 (UniProt Q9P2B7) | 2.4 | 1.35 |
| MRPL27 (UniProt Q9P0M9) | 0.0611 | -0.946 |

| Target | melting temperature shift (MBE1 concentration: 100 nM) [°C] | melting temperature shift (MBE1 concentration: 1 uM) [°C] |
| --- | --- | --- |
| CTTNBP2NL (UniProt Q9P2B4) | 0.33 | -0.179 |
| INTS7 (UniProt Q9NVH2) | 0.342 | 1.12 |
| RBM28 (UniProt Q9NW13) | 0.0769 | -0.199 |
| ARHGEF12 (UniProt Q9NZN5) | -1.51 | -1.28 |
| RBM27 (UniProt Q9P2N5) | -0.861 | -0.814 |
| DTL (UniProt Q9NZJ0) | 0.656 | -0.353 |
| HEATR5B (UniProt Q9P2D3) | 1.2 | 0.0305 |
| TFIP11 (UniProt Q9UBB9) | -0.442 | -0.378 |
| PDP1 (UniProt Q9P0J1) | -0.161 | 0.922 |
| TMEM161A (UniProt Q9NX61) | 1.46 | 0.232 |
| UniProt Q9P2X0 | 1.11 | 1.5 |
| NSMCE4A (UniProt Q9NXX6) | 1.05 | 1.38 |
| UniProt Q9NX18 | 1.9 | 3.49 |
| KIAA1522 (UniProt Q9P206) | -1.78 | -0.0604 |
| UniProt Q9NZV5 | 0.452 | 0.00611 |
| THUMPD1 (UniProt Q9NXG2) | -1.56 | 0.824 |
| UniProt Q9NXL9 | -0.177 | 1.17 |
| NUDT4 (UniProt Q9NZJ9) | 0.556 | -0.336 |
| UniProt Q9P2P1 | -0.0313 | 0.318 |
| NKIRAS1 (UniProt Q9NYS0) | 0.539 | 0.71 |
| PTGFRN (UniProt Q9P2B2) | -3.39 | -3 |
| UniProt Q9UBS0 | 0.0448 | -0.0384 |
| WDR70 (UniProt Q9NW82) | -1.07 | 0.0604 |
| FBXL12 (UniProt Q9NXK8) | -1.56 | -0.478 |

| Target | melting temperature shift (MBE1 concentration: 100 nM) [°C] | melting temperature shift (MBE1 concentration: 1 uM) [°C] |
| --- | --- | --- |
| ERAP1 (UniProt Q9NZ08) | -0.979 | -0.51 |
| EPS15L1 (UniProt Q9UBC2) | 0.58 | 0.366 |
| CFDP1 (UniProt Q9UEE9) | -3.25 | -3 |
| GEMIN8 (UniProt Q9NWZ8) | 2.29 | 1.06 |
| UQCR10 (UniProt Q9UDW1) | -1.65 | 0.11 |
| UniProt Q9NYP3 | -0.0122 | -0.122 |
| UniProt Q9P1Y6 | -1.53 | -0.249 |
| RAB20 (UniProt Q9NX57) | 1.05 | 1.15 |
| PRMT7 (UniProt Q9NVM4) | -0.198 | -0.908 |
| SLAIN2 (UniProt Q9P270) | -3.2 | -0.369 |
| ASF1B (UniProt Q9NVP2) | -0.852 | 0.273 |
| UniProt Q9NVH6 | -0.624 | -2.58 |
| KIAA1468 (UniProt Q9P260) | 0.69 | 0.415 |
| MBD2 (UniProt Q9UBB5) | -0.829 | 0.588 |
| PPP4R2 (UniProt Q9NY27) | -0.311 | 0.318 |
| STX18 (UniProt Q9P2W9) | 0.476 | -0.256 |
| COPG2 (UniProt Q9UBF2) | -0.57 | 0.0733 |
| IGF2BP1 (UniProt Q9NZI8) | -0.835 | -0.341 |
| DNAAF2 (UniProt Q9NVR5) | -0.153 | -0.415 |
| UXT (UniProt Q9UBK9) | 1.53 | 0.0488 |
| UniProt Q9NW61 | 0.0179 | 0.775 |
| GNL3L (UniProt Q9NVN8) | -0.474 | -0.602 |
| GNG12 (UniProt Q9UBI6) | -0.464 | -0.696 |
| RRN3 (UniProt Q9NYV6) | -1.31 | -0.349 |

Exported bar-delimited: entries from further up
Target | melting temperature shift (MBE1 concentration: 100 nM) [°C] | melting temperature shift (MBE1 concentration: 1 uM) [°C]
KIAA1468 (UniProt Q9P260) | 0.69 | 0.415
MBD2 (UniProt Q9UBB5) | -0.829 | 0.588

(listing goes on)

| Target | melting temperature shift (MBE1 concentration: 100 nM) [°C] | melting temperature shift (MBE1 concentration: 1 uM) [°C] |
| --- | --- | --- |
| RNF14 (UniProt Q9UBS8) | 1.05 | 0.238 |
| OXSM (UniProt Q9NWU1) | -1.47 | -3.35 |
| UniProt Q9NZI6 | -0.889 | -0.842 |
| CPSF2 (UniProt Q9P2I0) | -1.05 | -0.315 |
| SDAD1 (UniProt Q9NVU7) | -0.761 | 0.259 |
| UniProt Q9UDX5 | -3.28 | -3.76 |
| VPS18 (UniProt Q9P253) | 0.153 | -0.0488 |
| CTSZ (UniProt Q9UBR2) | -0.366 | -0.0427 |
| FANCI (UniProt Q9NVI1) | -0.372 | -0.128 |
| GPATCH2 (UniProt Q9NW75) | -4.05 | 0.262 |
| UniProt Q9UBN7 | 1.31 | 0.879 |
| CCDC59 (UniProt Q9P031) | -1.48 | 0.891 |
| UniProt Q9NXR8 | -1.59 | 0.0192 |
| ANO10 (UniProt Q9NW15) | -0.489 | 0.513 |
| UTP6 (UniProt Q9NYH9) | -0.359 | -0.653 |
| UniProt Q9UBP9 | -0.527 | -0.565 |
| MRPL39 (UniProt Q9NYK5) | 0.678 | 0.22 |
| COMMD9 (UniProt Q9P000) | -0.228 | 0 |
| ATXN10 (UniProt Q9UBB4) | 0.147 | 0.397 |
| SPAST (UniProt Q9UBP0) | -0.47 | -0.0988 |
| SIRT5 (UniProt Q9NXA8) | 1.31 | -0.293 |
| COMMD3 (UniProt Q9UBI1) | 1.25 | 0.275 |
| TMOD3 (UniProt Q9NYL9) | 0.249 | -0.183 |
| UniProt Q9NZU0 | -0.742 | 0.0611 |
